Measurements published in US20100081825A1, “1-NAPHTHYL ALKYLPIPERIDINE DERIVATIVE” (Taisho Pharmaceutical Co Ltd, priority 2006, published 2010).
Where a name gives a salt, the structure may show the parent alone. Some results were stated once for a whole list of compounds, not compound by compound.

These compounds were tested against T1, MCH1R (Homo sapiens, UniProt Q99705) (assay: MCH1R calcium evaluation test (FDSS assay, inhibition of MCH-induced intracellular calcium increase)). Conditions: cells stably expressing non-endogenous active MCH1R; 50 nM MCH; list of compounds in text; read-out: IC50 value of 30 nM or less.
T1 construct: IC50; other: cells stably expressing non-endogenous active MCH1R; 50 nM MCH; Fluo-4 calcium, FDSS6000; list of compounds i
Format: cell-based
From the text: MCH1R Calcium Evaluation Test
An FDSS assay can measure the intracellular calcium concentration and can evaluate the Gq-coupled receptor activity using the calcium concentration as an index. For example, the assay can determine whether an analyte is an antagonist, an inverse agonist or an agonist for a Gq-coupled receptor. The FDSS6000™ system (Hamamatsu Photonics K.K.) is designed to perform evaluation based on functionality such as measurement of intracellular calcium for high-throughput screening. Intracellular calcium release by activation of a Gq-coupled receptor can be fluorometrically measured by incorporating a calcium indicator (such as Fluo4) into cells. On the other hand, the assay cannot measure the activation of Gi- and Go-coupled receptors, because the activation is not associated with calcium signaling pathways.
Intracellular fluorescence can be rapidly and successively measured in a 96-well microplate or a 384-well microplate using a fluorometric imaging plate reader system. FDSS6000™ can simultaneously measure fluorescence in all wells sensitively, accurately and by seconds. This system is ideal for functional analysis in cells such as monitoring of an intracellular calcium flow generated within several seconds after activation of a Gq-coupled receptor.
On the day before the test, cells stably expressing non-endogenous active MCH1R were seeded into a 96-well microplate at 3×10^4 cells per well. 100 μL per well of a medium (Dulbecco's modified Eagle medium containing 10% fetal bovine serum, 2 mM glutamine, 1 mM sodium pyruvate and 0.5 mg/mL G418, pH 7.4) was used for culture. On the day of the test, the medium was removed and an assay buffer {Hank's balanced salt solution containing 20 mM HEPES, 0.5 mM probenecid, 0.05 mg/mL amaranth and 0.2% bovine serum albumin (BSA), pH 7.4} containing 2 μM Fluo-4-AM and 0.04% Pluronic F127 was added at 100 μL per well, followed by incubation in a 5% CO2 incubator at 37° C. for one hour. Thereafter, the buffer was removed and an assay buffer containing each concentration of the test compound was newly added at 150 μL per well, followed by incubation in a 5% CO2 incubator at 37° C. for 30 minutes. An assay buffer containing each concentration of MCH was added at 50 μL per well, and transient changes in the intracellular calcium concentration induced by MCH were monitored using FDSS6000™ at Ex. 488 nm and Em. 530 nm for 180 seconds. In testing the antagonistic activity of the analyte, MCH was added to a final concentration of 50 nM. An inhibition curve was prepared with various concentrations of the analyte, and the concentration of the analyte inhibiting 50% of the increase in intracellular calcium when 50 nM MCH was added (IC50 value) was calculated using data analysis software Origin Ver. 6.
Work on `COc1cccc(C(=O)NC2CCN(Cc3ccc4ccc(COCC5CC5)cc4c3)CC2)c1` [Example 22, N-[1-({7-[(cyclopropylmethoxy)methyl]-2-naphthyl}methyl)piperidin-4-yl]-3-methoxybenzamide] yielded an IC50 of at most 30 nM. `COc1cccc(C(=O)NC2CCN(Cc3ccc4ccc(CNCC5CCCN5)cc4c3)CC2)c1` (stereo not shown) [Example 70, 3-Methoxy-N-{1-[(7-{[(pyrrolidin-2-ylmethyl)amino]methyl}-2-naphthyl)methyl]piperidin-4-yl}benzamide trihydrochloride] showed an IC50 of at most 30 nM. In the case of `COc1cccc(C(=O)NC2CCN(Cc3ccc4ccc(O)cc4c3)CC2)c1` [Example 112, N-{1-[(7-hydroxy-2-naphthyl)methyl]piperidin-4-yl}-3-methoxybenzamide], the IC50 is reported as at most 30 nM. Work on `COc1cccc(C(=O)NC2CCN(Cc3ccc4ccc(CNCCN)cc4c3)CC2)c1` [Example 64, N-{1-[(7-{[(2-Aminoethyl)amino]methyl}-2-naphthyl)methyl]piperidin-4-yl}-3-methoxybenzamide trihydrochloride] yielded an IC50 of at most 30 nM. Work on `COCCOCCOc1ccc2ccc(CN3CCC(NC(=O)c4cccc(OC)c4)CC3)cc2c1` [Example 114, 3-Methoxy-N-[1-({7-[2-(2-methoxyethoxy)ethoxy]-2-naphthyl}methyl)piperidin-4-yl]benzamide] yielded an IC50 of at most 30 nM. `COc1cccc(C(=O)NC2CCN(Cc3ccc4ccc(CNCCC(C)C)cc4c3)CC2)c1` [Example 54, 3-Methoxy-N-{1-[(7-{[(3-methylbutyl)amino]methyl}-2-naphthyl)methyl]piperidin-4-yl}benzamide] gave an IC50 of at most 30 nM. With `COCc1ccc2ccc(CN3CCC(NC(=O)c4cccc(OC)c4)CC3)cc2c1` [Example 13, 3-Methoxy-N-(1-{[7-(methoxymethyl)-2-naphthyl]methyl}piperidin-4-yl)benzamide] the IC50 was at most 30 nM. `C=CCOCc1ccc2ccc(CN3CCC(NC(=O)c4cccc(OC)c4)CC3)cc2c1` [Example 25, N-[1-({7-[(Allyloxy)methyl]-2-naphthyl}methyl)piperidin-4-yl]-3-methoxybenzamide] showed an IC50 of at most 30 nM. Compound `COCc1ccc2ccc(CN3CCC(NC(=O)c4cc(Cl)cc(OC)c4)CC3)cc2c1` [Example 16, 3-Chloro-5-methoxy-N-(1-{[7-(methoxymethyl)-2-naphthyl]methyl}piperidin-4-yl)benzamide] has an IC50 of at most 30 nM. In the case of `COc1cccc(C(=O)NC2CCN(Cc3ccc4ccc(COCCOC5CCCCO5)cc4c3)CC2)c1` (stereo not shown) [Example 32, 3-Methoxy-N-{1-[(7-{[2-(tetrahydro-2H-pyran-2-yloxy)ethoxy]methyl}-2-naphthyl)methyl]piperidin-4-yl}benzamide], the IC50 is reported as at most 30 nM. `CCc1cccc(C(=O)NC2CCN(Cc3ccc4ccc(COCCOC)cc4c3)CC2)c1` [Example 127, 3-ethyl-N-[1-({7-[(2-methoxyethoxy)methyl]-2-naphthyl}methyl)piperidin-4-yl]benzamide] showed an IC50 of at most 30 nM. `COCCOCc1ccc2ccc(CN3CCC(NC(=O)c4cccc(C(F)(F)F)c4)CC3)cc2c1` [Example 83, N-[1-({7-[(2-Methoxyethoxy)methyl]-2-naphthyl}methyl)piperidin-4-yl]-3-(trifluoromethyl)benzamide] showed an IC50 of at most 30 nM. Compound `COc1cccc(C(=O)NC2CCN(Cc3ccc4ccc(COCCO)cc4c3)CC2)c1` [Example 35, N-[1-({7-[(2-hydroxyethoxy)methyl]-2-naphthyl}methyl)piperidin-4-yl]-3-methoxybenzamide] has an IC50 of at most 30 nM. `C=Cc1cccc(C(=O)NC2CCN(Cc3ccc4ccc(COCCOC)cc4c3)CC2)c1` [Example 88, N-[1-({7-[(2-Methoxyethoxy)methyl]-2-naphthyl}methyl)piperidin-4-yl]-3-vinylbenzamide] was tested, and the IC50 was at most 30 nM. `COCCNCc1ccc2ccc(CN3CCC(NC(=O)c4cccc(OC)c4)CC3)cc2c1` [Example 60, 3-Methoxy-N-{1-[(7-{[(2-methoxyethyl)amino]methyl}-2-naphthyl)methyl]piperidin-4-yl}benzamide] gave an IC50 of at most 30 nM. For `COCc1ccc2ccc(CN3CCC(NC(=O)c4cc(OC)cc(OC)c4)CC3)cc2c1` [Example 10, 3,5-Dimethoxy-N-(1-{[7-(methoxymethyl)-2-naphthyl]methyl}piperidin-4-yl)benzamide], the IC50 was at most 30 nM. `COc1cccc(C(=O)NC2CCN(Cc3ccc4ccc(CNCC5CC5)cc4c3)CC2)c1` [Example 59, N-{1-[(7-{[(Cyclopropylmethyl)amino]methyl}-2-naphthyl)methyl]piperidin-4-yl}-3-methoxybenzamide] gave an IC50 of at most 30 nM. `COc1cccc(C(=O)NC2CCN(Cc3ccc4ccc(CN5CCC(N)C5)cc4c3)CC2)c1` (stereo not shown) [Example 68, N-[1-({7-[(3-Aminopyrrolidin-1-yl)methyl]-2-naphthyl}methyl)piperidin-4-yl]-3-methoxybenzamide trihydrochloride] showed an IC50 of at most 30 nM. `COCCOCc1ccc2ccc(CN3CCC(NC(=O)c4cccc(Cl)c4)CC3)cc2c1` [Example 94, 3-Chloro-N-[1-({7-[(2-methoxyethoxy)methyl]-2-naphthyl}methyl)piperidin-4-yl]benzamide] gave an IC50 of at most 30 nM. For `CCCOCc1ccc2ccc(CN3CCC(NC(=O)c4cccc(OC)c4)CC3)cc2c1` [Example 24, 3-Methoxy-N-(1-{[7-(propoxymethyl)-2-naphthyl]methyl}piperidin-4-yl)benzamide], the IC50 was at most 30 nM. `COCCOCc1ccc2ccc(CN3CCC(NC(=O)c4cccc([N+](=O)[O-])c4)CC3)cc2c1` [Example 93, N-[1-({7-[(2-Methoxyethoxy)methyl]-2-naphthyl}methyl)piperidin-4-yl]-3-nitrobenzamide] was tested, and the IC50 was at most 30 nM. For `COc1cccc(C(=O)NC2CCN(Cc3ccc4ccc(CNCCN5CCCCC5)cc4c3)CC2)c1` [Example 61, 3-Methoxy-N-{1-[(7-{[(2-piperidin-1-ylethyl)amino]methyl}-2-naphthyl)methyl]piperidin-4-yl}benzamide], the IC50 was at most 30 nM. In the case of `COCCOCc1ccc2ccc(CN3CCC(NC(=O)c4cccc(SC)c4)CC3)cc2c1` [Example 95, N-[1-({7-[(2-Methoxyethoxy)methyl]-2-naphthyl}methyl)piperidin-4-yl]-3-(methylthio)benzamide], the IC50 is reported as at most 30 nM. Compound `COc1cccc(C(=O)NC2CCN(Cc3ccc4ccc(OCCCO)cc4c3)CC2)c1` [Example 117, N-(1-{[7-(3-Hydroxypropoxy)-2-naphthyl]methyl}piperidin-4-yl)-3-methoxybenzamide] has an IC50 of at most 30 nM. With `COc1cccc(C(=O)NC2CCN(Cc3ccc4ccc(CNCCN(C)C)cc4c3)CC2)c1` [Example 49, N-(1-{[7-({[2-(Dimethylamino)ethyl]amino}methyl)-2-naphthyl]methyl}piperidin-4-yl)-3-methoxybenzamide] the IC50 was at most 30 nM. Compound `COc1cccc(C(=O)NC2CCN(Cc3ccc4ccc(CO)cc4c3)CC2)c1` [Example 4, N-(1-{[7-(hydroxymethyl)-2-naphthyl]methyl}piperidin-4-yl)-3-methoxybenzamide] has an IC50 of at most 30 nM. Work on `COc1cccc(C(=O)NC2CCN(Cc3ccc4ccc(COCCOC(C)C)cc4c3)CC2)c1` [Example 30, N-[1-({7-[(2-Isopropoxyethoxy)methyl]-2-naphthyl}methyl)piperidin-4-yl]-3-methoxybenzamide] yielded an IC50 of at most 30 nM. Work on `COc1cccc(C(=O)NC2CCN(Cc3ccc4ccc(OCCN5CCCC5)cc4c3)CC2)c1` [Example 116, 3-Methoxy-N-(1-{[7-(2-pyrrolidin-1-ylethoxy)-2-naphthyl]methyl}piperidin-4-yl)benzamide] yielded an IC50 of at most 30 nM. `COCCOCc1ccc2ccc(CN3CCC(NC(=O)C(c4ccc(Cl)cc4)c4ccc(Cl)cc4)CC3)cc2c1` [Example 153, 2,2-Bis(4-chlorophenyl)-N-[1-({7-[(2-methoxyethoxy)methyl]naphthalen-2-yl}methyl)piperidin-4-yl]acetamide] gave an IC50 of at most 30 nM. For `COc1cccc(C(=O)NC2CCN(Cc3ccc4ccc(COCCN5CCCC5)cc4c3)CC2)c1` [Example 36, 3-Methoxy-N-[1-({7-[(2-pyrrolidin-1-ylethoxy)methyl]-2-naphthyl}methyl)piperidin-4-yl]benzamide], the IC50 was at most 30 nM. `COc1cccc(C(=O)NC2CCN(Cc3ccc4ccc(CCO)cc4c3)CC2)c1` [Example 120, N-(1-{[7-(2-hydroxyethyl)-2-naphthyl]methyl}piperidin-4-yl)-3-methoxybenzamide] showed an IC50 of at most 30 nM.
